Measurements reported in PubChem BioAssay AID504784 (Drosophila RNAi Screening Center, 2011).
The deposit covers about 17,000 reagents; shown is a random part of those that have a named target and a result. 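Each column is one replicate's B-score; the combined score over replicates was not deposited, so single values may mislead.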 The numbers tell different reagents against one gene apart. A plus sign joins genes that one reagent is predicted to hit. Not all columns of the deposit are shown. Reagent sequences are not shown.

Assay: 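Genome-wide knock-down for genes giving too much or too little stored lipid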 (primary screen)
Cells: Drosophila Kc167 embryonic cells
Reagents: long dsRNA against Drosophila genes, about 250 ng dsRNA per well
Time to read-out: 4 days
Treatment: cells fed 400 µM oleic acid bound to BSA
Measured: 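Cells imaged and segmented; ratio of lipid droplet area to nuclear area, log-transformed, then normalised as a B-score over the screen; higher means more stored lipid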
Direction: droplet/nuclear area B-score: higher = more stored lipid (overstorage)

{"predicted target": "mAcon2", "reagent no.": 1, "droplet/nuclear area B-score, replicate 1": 1.43}
{"predicted target": "Trissin", "reagent no.": 1, "droplet/nuclear area B-score, replicate 1": -3.42}
{"predicted target": "emb", "reagent no.": 1, "droplet/nuclear area B-score, replicate 1": 0.229}
{"predicted target": "CG43707", "reagent no.": 1, "droplet/nuclear area B-score, replicate 1": -0.672}
{"predicted target": "CG43707", "reagent no.": 2, "droplet/nuclear area B-score, replicate 1": -1.96}
{"predicted target": "CG6484", "reagent no.": 1, "droplet/nuclear area B-score, replicate 1": -3.86}
{"predicted target": "Gbs-76A", "reagent no.": 1, "droplet/nuclear area B-score, replicate 1": -0.167}
{"predicted target": "FucTD", "reagent no.": 1, "droplet/nuclear area B-score, replicate 1": 0.985}
{"predicted target": "Ercc1", "reagent no.": 1, "droplet/nuclear area B-score, replicate 1": 3.82}
{"predicted target": "CG17739", "reagent no.": 1, "droplet/nuclear area B-score, replicate 1": 0.837}
{"predicted target": "LSm7", "reagent no.": 1, "droplet/nuclear area B-score, replicate 1": -0.531}
{"predicted target": "qtc", "reagent no.": 1, "droplet/nuclear area B-score, replicate 1": 0.926}
{"predicted target": "qtc", "reagent no.": 2, "droplet/nuclear area B-score, replicate 1": -0.657}
{"predicted target": "CG13690", "reagent no.": 1, "droplet/nuclear area B-score, replicate 1": 0.158}
{"predicted target": "twin", "reagent no.": 1, "droplet/nuclear area B-score, replicate 1": -1.69}
{"predicted target": "twin", "reagent no.": 2, "droplet/nuclear area B-score, replicate 1": 2.45}
{"predicted target": "twin", "reagent no.": 3, "droplet/nuclear area B-score, replicate 1": 0.845}
{"predicted target": "Cpr31A", "reagent no.": 1, "droplet/nuclear area B-score, replicate 1": -0.0285}
{"predicted target": "CG7568", "reagent no.": 1, "droplet/nuclear area B-score, replicate 1": -0.12}
{"predicted target": "eIF3m", "reagent no.": 1, "droplet/nuclear area B-score, replicate 1": 3.08}
{"predicted target": "Ir94b", "reagent no.": 1, "droplet/nuclear area B-score, replicate 1": -1.22}
{"predicted target": "CG11816", "reagent no.": 1, "droplet/nuclear area B-score, replicate 1": -2.11}
{"predicted target": "DCTN5-p25", "reagent no.": 1, "droplet/nuclear area B-score, replicate 1": 0.42}
{"predicted target": "Naa80", "reagent no.": 1, "droplet/nuclear area B-score, replicate 1": 0.242}
{"predicted target": "CG16813", "reagent no.": 1, "droplet/nuclear area B-score, replicate 1": -1.19}
{"predicted target": "Vha13", "reagent no.": 1, "droplet/nuclear area B-score, replicate 1": 0.774}
{"predicted target": "spo", "reagent no.": 1, "droplet/nuclear area B-score, replicate 1": -0.505}
{"predicted target": "msl-3", "reagent no.": 1, "droplet/nuclear area B-score, replicate 1": 0.679}
{"predicted target": "E2f2", "reagent no.": 1, "droplet/nuclear area B-score, replicate 1": -1.07}
{"predicted target": "Argp", "reagent no.": 1, "droplet/nuclear area B-score, replicate 1": -0.454}
{"predicted target": "Pif2", "reagent no.": 1, "droplet/nuclear area B-score, replicate 1": 0.697}
{"predicted target": "Cyp1", "reagent no.": 1, "droplet/nuclear area B-score, replicate 1": -0.624}
{"predicted target": "Drep4", "reagent no.": 1, "droplet/nuclear area B-score, replicate 1": 0.422}
{"predicted target": "Cyp4e2", "reagent no.": 1, "droplet/nuclear area B-score, replicate 1": -0.133}
{"predicted target": "AdamTS-B", "reagent no.": 1, "droplet/nuclear area B-score, replicate 1": 0.488}
{"predicted target": "CG12491 + CG34105", "reagent no.": 1, "droplet/nuclear area B-score, replicate 1": 0.191}
{"predicted target": "CG12491 + CG34105", "reagent no.": 2, "droplet/nuclear area B-score, replicate 1": -0.521}
{"predicted target": "MICU1", "reagent no.": 1, "droplet/nuclear area B-score, replicate 1": -0.929}
{"predicted target": "Gas8", "reagent no.": 1, "droplet/nuclear area B-score, replicate 1": -1.41}
{"predicted target": "CG15373", "reagent no.": 1, "droplet/nuclear area B-score, replicate 1": -0.9}
{"predicted target": "Chro", "reagent no.": 1, "droplet/nuclear area B-score, replicate 1": -0.0223}
{"predicted target": "dome", "reagent no.": 1, "droplet/nuclear area B-score, replicate 1": -1.51}
{"predicted target": "nmo", "reagent no.": 1, "droplet/nuclear area B-score, replicate 1": 0.565}
{"predicted target": "nmo", "reagent no.": 2, "droplet/nuclear area B-score, replicate 1": 1.04}
{"predicted target": "Mccc2", "reagent no.": 1, "droplet/nuclear area B-score, replicate 1": -1.37}
{"predicted target": "CG17896", "reagent no.": 1, "droplet/nuclear area B-score, replicate 1": 0.177}
{"predicted target": "Ciao1", "reagent no.": 1, "droplet/nuclear area B-score, replicate 1": -0.016}
{"predicted target": "ZnT35C", "reagent no.": 1, "droplet/nuclear area B-score, replicate 1": -1.04}
{"predicted target": "CG7560", "reagent no.": 1, "droplet/nuclear area B-score, replicate 1": -0.298}
{"predicted target": "Smyd4-4", "reagent no.": 1, "droplet/nuclear area B-score, replicate 1": -2.38}
{"predicted target": "AMPdeam", "reagent no.": 1, "droplet/nuclear area B-score, replicate 1": 1.02}
{"predicted target": "AMPdeam", "reagent no.": 2, "droplet/nuclear area B-score, replicate 1": -0.303}
{"predicted target": "AMPdeam", "reagent no.": 3, "droplet/nuclear area B-score, replicate 1": -4.49}
